Assay results: article PMC6821912
Results are given in words; binding and its absence hold for the method and conditions named. Binding seen in cells or lysates may run through a third protein. For some assays here: Binding calls can cover weak binding; strength is not graded here. Where a sequence is shown, tags or fusion partners need not be part of it.

What was measured:
[1] = target: GST-tagged NTD-deleted Smad7 (human); test: pull-down; GST pull-down (Glutathione 4B, overnight, 4 °C) from RIPA lysates of HEK293T cells co-transfected with GST-Smad7 WT or truncated constructs and Strep-Gadd45β; immunoblot with anti-Strep (the legend of Fig. 5d says Strep pull-down)
[2] = target: GST-tagged Smad7 N-terminal domain (NTD) (human); test: as above

- binding [1]: no binding
- binding [2]: binds
B1: Strep-tagged Gadd45β (protein, UniProt O75293 1-160)
chain: MTLEELVACDNAAQKMQTVTAAVEELLVAAQRQDRLTVGVYESAKLMNVDPDSVVLCLLAIDEEEEDDIALQIHFTLIQSFCCDNDINIVRVSGMQRLAQLLGEPAETQGTTEARDLHCLLVTNPHTDAWKSHGLVEVASYCEESRGNNQWVPYISLQER
